The other results are listed elsewhere or left out.

By UniProt entry, the sequences of proteins in these tests, tags left out.
UniProt Q0JBA9, entry or part of it: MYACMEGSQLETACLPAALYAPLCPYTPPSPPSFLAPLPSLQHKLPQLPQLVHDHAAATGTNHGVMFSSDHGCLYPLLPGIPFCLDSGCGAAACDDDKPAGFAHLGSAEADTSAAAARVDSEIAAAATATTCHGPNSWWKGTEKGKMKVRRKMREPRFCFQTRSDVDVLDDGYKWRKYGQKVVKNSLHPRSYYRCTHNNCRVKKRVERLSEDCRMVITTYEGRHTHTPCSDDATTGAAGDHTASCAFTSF

This assay deals with OsWRKY34 (Oryza sativa, UniProt Q0JBA9 1-250). The experiment in a line: protein-binding microarray (RPBM); PBS, 2% BSA, 51.3 ng/ul salmon testes DNA, 50 uM zinc acetate, 200 nM TF, 25 C, 1 h; high values mean tight binding. The note with it: protein: recombinant; tags: N-terminal polyhistidine and DsRed monomer fusion (pET32a); label: CyDye5-dUTP incorporated in the synthesized complementary strand; 3' TTTTT single-stranded linker to array surface; dsDNA, one strand shown. The method, boiled down:
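Binding signal is defined as the fluorescence intensity of each feature in arbitrary units, read on an Axon 4000B scanner. Transcription factors with N-terminal polyhistidine and DsRed fusions came from E. coli BL21-CodonPlus and were purified on Ni–NTA. They were incubated at 200 nM for 1 h at 25 °C on a custom Agilent array that had been made double-stranded with Cy5-dUTP, with 50 µM zinc acetate present, and the array was washed.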
Consider “ATTCCACGCGCATTCTCGGCCGATTAGCCCCGCCATGTGGCGGAGTCACCTAGTGCAG”, for which the binding signal was 8320 fluorescence intensity (a.u.). As for “GATAGTTTCTCGCTACTCGCTCCCGCCAAGCTAAGTTAGCCGGAGTCACCTAGTGCAG”, the binding signal was 8220 fluorescence intensity (a.u.). “CCTTGGCCCCGACGAGCAGCACCTCCAGCGTCCCGTGCACCGGAGTCACCTAGTGCAG”: the binding signal is 8340 fluorescence intensity (a.u.). Regarding “GATACTTATGCGGGGTTCCCAACCAGCACCGATGTCGATTCGGAGTCACCTAGTGCAG”, the binding signal was 9420 fluorescence intensity (a.u.). With “CATCTCGCCCTCGCGCGGAGACTGGTGTCCCTGTTTTGCTCGGAGTCACCTAGTGCAG” the figure was 8370 fluorescence intensity (a.u.).

On to “CTTTCCATCTCATCCTCACGTATTCCCCAGAGTGCTAAATCGGAGTCACCTAGTGCAG”, for which the binding signal was 9280 fluorescence intensity (a.u.). Regarding “CTCATCCATCATCGTCCTCGACTCCTCGCCGTCGCCTCCCCGGAGTCACCTAGTGCAG”, the binding signal was 9390 fluorescence intensity (a.u.). In the case of “AACCCGGTCTGTCTCTACTTGCTTTTATTCTACTTGTACACGGAGTCACCTAGTGCAG”, the binding signal is 9140 fluorescence intensity (a.u.). As for “ACTTCCAAGGCTGTTTGTCGTGGGTCCACATGTCAGTTACCGGAGTCACCTAGTGCAG”, the binding signal was 8540 fluorescence intensity (a.u.).

As to “ATAAGGGATTTTCAGTTTTTGCTTGCAACGTTTGACCACTCGGAGTCACCTAGTGCAG”, the binding signal was 9970 fluorescence intensity (a.u.). The same measure for “AGTCGTCTGTCCATTATCCTGTTCGAGTATAAGCTTTTTTCGGAGTCACCTAGTGCAG”: 11700 fluorescence intensity (a.u.); for “AGGCCCACACCCTTTTCTTCACGCGTATTTGCAGTCTCGCCGGAGTCACCTAGTGCAG”: 11900 fluorescence intensity (a.u.). The same measure for “GGGCGGCAGGGTCTATTTTTGCAATTTTGTTCGCCGATAGCGGAGTCACCTAGTGCAG”: 11100 fluorescence intensity (a.u.). In the case of “GGTGTTTATGTTGGTTATCTCACTTTGCCATGTCACACTTCGGAGTCACCTAGTGCAG”, the binding signal is 14800 fluorescence intensity (a.u.). With “AGCTTCTTTTTCTGTGATAGCAATACTGCCTCGAGGAGGACGGAGTCACCTAGTGCAG” the figure was 8950 fluorescence intensity (a.u.). Take “CTCGCCTTTGTTTTCCCCTTCGCGCACCAAACACCAAACACGGAGTCACCTAGTGCAG”: the binding signal was 11600 fluorescence intensity (a.u.). As to “CCACCACTACCATCCGTTCCACCTTCCGAACCAAACAGCGCGGAGTCACCTAGTGCAG”, the binding signal is 8670 fluorescence intensity (a.u.).

Regarding “AGTTCCAAATTTTTTCTTCAAACTTCCGCTTTTCTATCACCGGAGTCACCTAGTGCAG”, the binding signal is 13000 fluorescence intensity (a.u.). The same measure for “GTGTCCTTTTCTTTTTTTTCTTCTTTTCTTTTTCTTTTTCCGGAGTCACCTAGTGCAG”: 9510 fluorescence intensity (a.u.); for “AACTAAACATTTTTCCACGCGCCCCGCATGTATCCTTTCTCGGAGTCACCTAGTGCAG”: 8040 fluorescence intensity (a.u.).

Consider “ACCAATCGTTCACACCAGTGCAGTTAACCACCTAACTGATCGGAGTCACCTAGTGCAG”, for which the binding signal was 8650 fluorescence intensity (a.u.). Regarding “GGCCATTAATCTTGCCCGCGAATTAACCTGATAACTAACTCGGAGTCACCTAGTGCAG”, the binding signal was 8190 fluorescence intensity (a.u.).

For the sequence “ATCGTTATCTATTGCCGTATGTTATTTCGTTGTTCCGTCTCGGAGTCACCTAGTGCAG”, the binding signal is 8920 fluorescence intensity (a.u.). With “GGGGCTTTTAGTAGTAGTTCCATTTCTTATTTTGTTTTTGCGGAGTCACCTAGTGCAG” the figure was 14600 fluorescence intensity (a.u.); with “GCATGCCACATAGCCACTCGCTCATCGGAAGCAAATCATCCGGAGTCACCTAGTGCAG”, 9460 fluorescence intensity (a.u.).

As to “AAGACTTCTCGGCTCTTATCCATTTTTCGAATTTTTTTAGCGGAGTCACCTAGTGCAG”, the binding signal is 8880 fluorescence intensity (a.u.).

Regarding “TCTTCCCTAGGTGAGATTAATTCTTCTGTGTTTGTCGATTCGGAGTCACCTAGTGCAG”, the binding signal is 8470 fluorescence intensity (a.u.). Consider “CTCCTTGGCCCTTTATATACATACACACAGGCACACGTCCCGGAGTCACCTAGTGCAG”, for which the binding signal is 12900 fluorescence intensity (a.u.).

As for “CGCCTGTTGTTCTTGCCTCCTTCCCCGACCGCCACTCTTCCGGAGTCACCTAGTGCAG”, the binding signal is 13600 fluorescence intensity (a.u.). On to “TGGTGTGGTTTTTTATTAGACGGTGGGAGGAAGACAAATACGGAGTCACCTAGTGCAG”, for which the binding signal is 8570 fluorescence intensity (a.u.). Regarding “CGTCAATGTCCTTACAAAATTATGGAGCACCTCTCTTTTTCGGAGTCACCTAGTGCAG”, the binding signal was 9170 fluorescence intensity (a.u.). On to “AGATCATTTTCTCATCAATCCAGCCATTCTATCTATACTACGGAGTCACCTAGTGCAG”, for which the binding signal is 8810 fluorescence intensity (a.u.). The same measure for “CAATTGCCATGCTATTTGTGTTTTGTGTTTATGTGCAACTCGGAGTCACCTAGTGCAG”: 9250 fluorescence intensity (a.u.); for “TTTCCTCTTTTTTGTTTGTTCGTTTGCTGCGTTATCACCTCGGAGTCACCTAGTGCAG”: 10200 fluorescence intensity (a.u.); for “GGTGTACTTGTTTGCCTGGTTATGATGGAAATCCATATATCGGAGTCACCTAGTGCAG”: 8710 fluorescence intensity (a.u.). On to “TTACTATACTATTAATATCTGATCACACCTGTCATACACACGGAGTCACCTAGTGCAG”, for which the binding signal was 9710 fluorescence intensity (a.u.). The same measure for “CTTGTTCCTGCACGCGATTGCCCAACTTGGAGCACGAAATCGGAGTCACCTAGTGCAG”: 8320 fluorescence intensity (a.u.); for “ATCTGCTTCAATTTCGTATTCGACAATATTCGATTCCGTTCGGAGTCACCTAGTGCAG”: 9530 fluorescence intensity (a.u.).

As to “ATAACCAACATATTTAGCCTACAATTAAATATTTACTATACGGAGTCACCTAGTGCAG”, the binding signal was 8390 fluorescence intensity (a.u.). Regarding “CGCCCTCTGCTTTTACTAGTGCATCTCCGTCTCGCTGCATCGGAGTCACCTAGTGCAG”, the binding signal is 9110 fluorescence intensity (a.u.). Take “TGGCATCTTCTATACATAATACAAGCTCCTTTGTTTCCTACGGAGTCACCTAGTGCAG”: the binding signal is 8790 fluorescence intensity (a.u.). The same measure for “CCAATTTACAGTACTTTGTGCATGTGCTTTCTCCGTTTCACGGAGTCACCTAGTGCAG”: 8980 fluorescence intensity (a.u.).

(Values after paper PMC7819943, “Rice protein-binding microarrays: a tool to detect cis-acting elements near promoter regions in rice”.)
